The data set concerns middle cerebral artery occlusion (MCAO) cerebral stroke model in rat. Description: Rat MCAO cerebral stroke model, single administration, TTC staining. The class given is in vivo, SD rats. The note with it: tail vein injection within 10 min of reperfusion, 24 h after reperfusion. On the procedure:
Through the middle cerebral artery occlusion (MCAO) cerebral stroke model (also known as cerebral ischemia model) in rat, the therapeutic effects of the compounds of the present disclosure at different doses and single administration on ischemic cerebral stroke in SD rats were studied. […] The ischemic rats were placed at room temperature to keep their body temperature at 37° C. After 90 min, the suture was pulled out for reperfusion. […] After 24 h of reperfusion, the animals were scored by NSS to evaluate neurological function, and then the animals were dissected to remove the brain for TTC staining. By determining the size of cerebral infarction and calculating the inhibition rate, the therapeutic effects of the test compounds on ischemic cerebral stroke in rats were evaluated comprehensively. […] The percentage of infarct tissue weight in the whole brain was used as the infarct size (%), and the inhibition rate (%) of each drug treatment group was calculated based on the infarct size. The inhibition rate was calculated with the following formula: [formula] 2.

Take `C=C(c1ccc2c(c1)Nc1ccccc1S2)c1ccc2ncccc2c1` [Compound 14]: the Whole brain weight reads like this: (2.5 mg/kg) 1.23 ± 0.08 g; (5 mg/kg) 1.2 ± 0.08 g.

Under “5 mg/kg”, `CCCCC1OC(=O)c2ccccc21` (stereo not drawn) [Positive drug, butylphthalide, reference compound] showed a Whole brain weight of 1.23 ± 0.08 g.

Values taken from US12448376B2, “Phenothiazine ferroptosis inhibitor, preparation method therefor and application thereof” (CHENGDU HENGHAO INNOVATIVE SCIENCE AND TECHNOLOGY CO., LTD., priority 2019, dated 2025).
